# From PMC7819943, “Rice protein-binding microarrays: a tool to detect cis-acting elements near promoter regions in rice”
# Protein sequences, listed by entry. Tags and fused reporters are not part of them.
# UniProt Q0JBA9, entry or part of it: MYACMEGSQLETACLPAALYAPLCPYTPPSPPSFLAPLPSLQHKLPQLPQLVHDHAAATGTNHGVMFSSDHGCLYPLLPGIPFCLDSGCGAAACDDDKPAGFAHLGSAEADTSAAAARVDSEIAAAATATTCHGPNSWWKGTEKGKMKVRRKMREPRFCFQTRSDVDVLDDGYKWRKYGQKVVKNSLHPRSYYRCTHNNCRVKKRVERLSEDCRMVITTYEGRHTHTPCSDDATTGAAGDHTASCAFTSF
# This is one part of the list.
# Target: OsWRKY34 (Oryza sativa, UniProt Q0JBA9 1-250)
# Test: protein-binding microarray (RPBM); PBS, 2% BSA, 51.3 ng/ul salmon testes DNA, 50 uM zinc acetate, 200 nM TF, 25 C, 1 h; high values mean tight binding
# Conditions: protein: recombinant; tags: N-terminal polyhistidine and DsRed monomer fusion (pET32a); label: CyDye5-dUTP incorporated in the synthesized complementary strand; 3' TTTTT single-stranded linker to array surface; dsDNA, one strand shown
# Summary of the method: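 Transcription factors, each fused N-terminally to a polyhistidine tag and DsRed, were expressed in E. coli BL21-CodonPlus and purified on Ni–NTA. A custom Agilent array was made double-stranded by primer extension with Cy5-dUTP and blocked with 2% BSA. It was incubated with 200 nM protein in PBS, 2% BSA, salmon testes DNA and 50 µM zinc acetate at 25 °C for 1 h, then washed. The binding signal is per-feature fluorescence intensity (arbitrary units) read on an Axon 4000B scanner.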
row,Sequence,binding signal
1,GTGAATATTGGTGTTCTCTTTCTTTGCCCAATTCGAAGAACGGAGTCACCTAGTGCAG,11300 fluorescence intensity (a.u.)
2,AATCGATTCTCCACTACTCTCTCGTCATTGTTCCCATGTTCGGAGTCACCTAGTGCAG,20100 fluorescence intensity (a.u.)
3,AACATCTAGTTCCGCTGACGCTTCGGGACAACCTCTACAACGGAGTCACCTAGTGCAG,9110 fluorescence intensity (a.u.)
4,TCCTTTGCTCCATGCTTGTTTCCAGCTCTCCATGTGCTCTCGGAGTCACCTAGTGCAG,13100 fluorescence intensity (a.u.)
5,GAGATGGAGGTGGAGGTGGTGGAGGGGACGACGATGGTGGCGGAGTCACCTAGTGCAG,9610 fluorescence intensity (a.u.)
6,TTTGCCATTGGTCACTAGCTCTAACTTTGCCTGGAACTAACGGAGTCACCTAGTGCAG,8530 fluorescence intensity (a.u.)
7,GTCCACGCATTCCGTCGCTTTCGGTTCTCCTTGTGCCCAACGGAGTCACCTAGTGCAG,9720 fluorescence intensity (a.u.)
8,CCCGCCTCTCCTTCTCCGGCCAGTCCAGCCGCCGCCGCCGCGGAGTCACCTAGTGCAG,9320 fluorescence intensity (a.u.)
9,ATACTCTCATTTTTGTTTGCTCTATTCTTTGCTTTTAGAACGGAGTCACCTAGTGCAG,10200 fluorescence intensity (a.u.)
10,CTCGGTCTTTTTCTACCCACCCCTAAATAGCATGCTGCATCGGAGTCACCTAGTGCAG,9020 fluorescence intensity (a.u.)
11,GTTTTTTCTTCGTTCATATTTAATGCTTCATACATATGTCCGGAGTCACCTAGTGCAG,11600 fluorescence intensity (a.u.)
12,TGTCTTGGTCATCGCTTCGGTTGCTCATGGCGCTGTTGTGCGGAGTCACCTAGTGCAG,12700 fluorescence intensity (a.u.)
13,TCCTGTGTTTTGCAATCCTCTGTTTTTACACTTGCATTCCCGGAGTCACCTAGTGCAG,10400 fluorescence intensity (a.u.)
14,GCCGTCGCACCACCACTGCCATCGCTCTCACCTCTTTGACCGGAGTCACCTAGTGCAG,13700 fluorescence intensity (a.u.)
15,GGAAAAGTTGGAAGTTTGTGTGTGTAGGAAAGTTTTAATGCGGAGTCACCTAGTGCAG,8390 fluorescence intensity (a.u.)
16,TTCTGTCATCCTCTCTCACGTCTATCATTGGTTTCTAGATCGGAGTCACCTAGTGCAG,10500 fluorescence intensity (a.u.)
17,TGCGAGGTGGTGGTGATTGCTTCGTCGGCTGTTGATTTCTCGGAGTCACCTAGTGCAG,9500 fluorescence intensity (a.u.)
18,GTATATTGGTGCAGCACCATATTGTGTTGTAGTGTAGTGACGGAGTCACCTAGTGCAG,11900 fluorescence intensity (a.u.)
19,GGCCCACCTGTCATCATCCGCACGAGTGAAGGAGATTTCACGGAGTCACCTAGTGCAG,9660 fluorescence intensity (a.u.)
20,TTGACACCGTTGACTTTTTAGTACATGTTTGACCGTTCGTCGGAGTCACCTAGTGCAG,41400 fluorescence intensity (a.u.)
21,AGGTCGCCTCGCCTCACCTCCTTCCACGGCTCCACCGCCGCGGAGTCACCTAGTGCAG,10200 fluorescence intensity (a.u.)

# Reprinted at random: 2 entries already listed.
row,Sequence,binding signal
17,TGCGAGGTGGTGGTGATTGCTTCGTCGGCTGTTGATTTCTCGGAGTCACCTAGTGCAG,9500 fluorescence intensity (a.u.)
8,CCCGCCTCTCCTTCTCCGGCCAGTCCAGCCGCCGCCGCCGCGGAGTCACCTAGTGCAG,9320 fluorescence intensity (a.u.)

# Carrying on.

row,Sequence,binding signal
1,ATTTGTGATTCCTACGTATACGAATTTTCATGTATTGATCCGGAGTCACCTAGTGCAG,8750 fluorescence intensity (a.u.)
2,CTCTCCCCAAGCGAGCCGGTACATATGCATCTACATATCTCGGAGTCACCTAGTGCAG,8720 fluorescence intensity (a.u.)
3,AGCATCAAGTCTCCACACCGCACTATGTCAAGTCCTTCTACGGAGTCACCTAGTGCAG,9390 fluorescence intensity (a.u.)
4,GACTACTATAACCCTATTTAATGAGCACAGTACATACACACGGAGTCACCTAGTGCAG,8120 fluorescence intensity (a.u.)
5,CTCTGTGCGCAAGTCCACACGTCAACCATGGCCGTACGTACGGAGTCACCTAGTGCAG,8060 fluorescence intensity (a.u.)
6,TCTTCCAATCGAGAACTCTTCTCCGGATTTCCTGGTTTTTCGGAGTCACCTAGTGCAG,8480 fluorescence intensity (a.u.)
7,ATAATATCACACGTACACTCCCACATATACACTCTCTTTCCGGAGTCACCTAGTGCAG,12100 fluorescence intensity (a.u.)
8,CAATTTGATGTATCTGTTCTGAATCTTCCACTCATGAATGCGGAGTCACCTAGTGCAG,8290 fluorescence intensity (a.u.)
9,GGATGGATGGGGATGCCGCTACGCTTCCGGGGAGGTCACCCGGAGTCACCTAGTGCAG,9680 fluorescence intensity (a.u.)
10,TTGGTAGAGTTGTCCGTTTGGATTTTGGCCTCCCTTTTTTCGGAGTCACCTAGTGCAG,8380 fluorescence intensity (a.u.)
11,TCTTTTCCTTTTTTGTCTTCGTTGCTACTCATGTTAGAGTCGGAGTCACCTAGTGCAG,8760 fluorescence intensity (a.u.)
12,ACATGATTTTCACATTTCTAACACTTGATATTTCTCCTTACGGAGTCACCTAGTGCAG,8110 fluorescence intensity (a.u.)
13,TAGGGACCCCTTTGGCTATTCACCCTTTTTTCTTAGTCCACGGAGTCACCTAGTGCAG,10600 fluorescence intensity (a.u.)
14,GCAACCGGATTCAATGCTATATATGATTTCTGACTCTGTTCGGAGTCACCTAGTGCAG,8890 fluorescence intensity (a.u.)
15,GGACATGTCTCCAAGCTCTCATCCGTTGACTTCTCCCTATCGGAGTCACCTAGTGCAG,15200 fluorescence intensity (a.u.)
16,TGTTCATCTTGTTCTTGCTGGTTCTCGATTGCTCGCAGGACGGAGTCACCTAGTGCAG,10400 fluorescence intensity (a.u.)
17,TTTTCCAACCTCCGCTGTCTCATTTCGTATACACACGTTTCGGAGTCACCTAGTGCAG,8260 fluorescence intensity (a.u.)
18,ACACGTTACCTCCGCCGCGGTTGCTTTCCTTCTTCCCTTCCGGAGTCACCTAGTGCAG,10800 fluorescence intensity (a.u.)
19,TCTCTCCTCCTCCGAGTCTTTTCGGTTTGGCTCGATCCGCCGGAGTCACCTAGTGCAG,9390 fluorescence intensity (a.u.)
20,CCTGCCCACTTGCGACTTGTGTCTTTTGTCTCGTTTCTTGCGGAGTCACCTAGTGCAG,14300 fluorescence intensity (a.u.)
21,CCCTTTCCTTCTCATTCCTCGCGGGGAGGGGCGGCGCCGACGGAGTCACCTAGTGCAG,11500 fluorescence intensity (a.u.)
